Assays:
Human Plasma Protein = assay: Human plasma protein binding (RED dialysis)
Protocol: (§1) The test compounds were weighed and prepared as 10 mM stocks in 100% DMSO. 10 μM is the final test concentration for all compounds.
(§2) The samples were prepared by spiking test compound(s) in plasma at 10 μM final concentration. 200 μL of plasma containing the test compound was added into the donor well (RED Chamber) of the insert. Simultaneously 350 μL of dialysis buffer (1×PBS) was added into the receiver well (white chamber). Two measurements were made for each test compound. The plate was covered with a sealer and incubated at 37° C. degrees on an orbital shaker at 500 rpm for 5 hours.
(§3) After incubation, 25 μl of plasma (RED chamber) and 25 μl of buffer (white chamber) samples were separately collected into separate centrifugation tubes. Plasma and buffer samples were precipitated with 200 μL of 100% acetonitrile containing internal standards. 25 μl of T0 (T Zero) plasma samples (samples before 5 hours incubation) were collected (To samples were processed immediately after the preparation of plasma working stock solution. These samples serve as a measure for calculating the percentage recovery of the test compound and precipitated using 100% acetonitrile containing internal standards). The samples were vortexed at 1000 rpm for 5 min and centrifuged at 4000 rpm for 10 min. The supernatant was diluted 2-fold with water and injected into LC-MS/MS.
(§4) The % of Plasma bound/unbound fraction was calculated by the following equation: % Unbound or % free=100*(Fc/Tc); % Recovery=100 (Fc+Tc)/[…] where Tc=Total compound concentration as determined by the calculated concentration on the plasma side of the membrane (concentration in plasma chamber), Fc=Free compound concentration as determined by the calculated concentration on the buffer side of the membrane (concentration in buffer chamber) and T0=Total compound concentration as determined before dialysis.

[1] = Human plasma protein binding (RED dialysis); conditions: human, plasma, 10 μM, 5 hours dialysis
Protocol: as §1, §2, §3, §4

[2] = Caco-2 permeability assay; conditions: human
Source text: The endpoint measured is the intestinal permeability expressed as apparent permeability—Papp value. All permeability values are represented as ×10^−6 cm/sec.

Remarks (binding class) (Human Plasma Protein)	fraction unbound at 5 h, 10 μM ([1]; % Bound in plasma)	fraction unbound at 5 h, 10 μM ([1]; % Unbound in plasma)	fraction unbound at 5 h, 10 μM ([1]; Fraction unbound)	Papp A→B [2] [×10⁻⁶ cm/s]	Papp B→A [2] [×10⁻⁶ cm/s]	efflux ratio [2]	recovery ([2]; Caco-2, % Recovery A to B) [%]	recovery ([2]; Caco-2, % Recovery B to A) [%]	Compound
Low binding	0.835	0.835	0.84						CC(C)NCC(O)COc1ccc(CC(N)=O)cc1 (stereo not drawn) [Atenolol]
				0.2	11.7	73.7	72.2	73.9	NS(=O)(=O)c1cc(C(=O)O)c(NCc2ccco2)cc1Cl [Furosemide, reference compound]

Reference: US12168673B2 (Mitopower, Inc., priority 2022, dated 2024)
